Among the data in paper PMC10868123 are binding values, retold here.

Amino acid sequences for entries named in this document (tags omitted). A change or cut given only in a name is not applied to a line headed by its entry.
UniProt P61026: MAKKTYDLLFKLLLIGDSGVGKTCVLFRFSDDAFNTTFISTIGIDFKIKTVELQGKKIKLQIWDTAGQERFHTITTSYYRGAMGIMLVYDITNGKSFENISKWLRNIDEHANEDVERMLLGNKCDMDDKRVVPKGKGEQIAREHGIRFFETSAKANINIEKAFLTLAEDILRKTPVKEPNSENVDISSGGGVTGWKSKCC
UniProt Q709C8: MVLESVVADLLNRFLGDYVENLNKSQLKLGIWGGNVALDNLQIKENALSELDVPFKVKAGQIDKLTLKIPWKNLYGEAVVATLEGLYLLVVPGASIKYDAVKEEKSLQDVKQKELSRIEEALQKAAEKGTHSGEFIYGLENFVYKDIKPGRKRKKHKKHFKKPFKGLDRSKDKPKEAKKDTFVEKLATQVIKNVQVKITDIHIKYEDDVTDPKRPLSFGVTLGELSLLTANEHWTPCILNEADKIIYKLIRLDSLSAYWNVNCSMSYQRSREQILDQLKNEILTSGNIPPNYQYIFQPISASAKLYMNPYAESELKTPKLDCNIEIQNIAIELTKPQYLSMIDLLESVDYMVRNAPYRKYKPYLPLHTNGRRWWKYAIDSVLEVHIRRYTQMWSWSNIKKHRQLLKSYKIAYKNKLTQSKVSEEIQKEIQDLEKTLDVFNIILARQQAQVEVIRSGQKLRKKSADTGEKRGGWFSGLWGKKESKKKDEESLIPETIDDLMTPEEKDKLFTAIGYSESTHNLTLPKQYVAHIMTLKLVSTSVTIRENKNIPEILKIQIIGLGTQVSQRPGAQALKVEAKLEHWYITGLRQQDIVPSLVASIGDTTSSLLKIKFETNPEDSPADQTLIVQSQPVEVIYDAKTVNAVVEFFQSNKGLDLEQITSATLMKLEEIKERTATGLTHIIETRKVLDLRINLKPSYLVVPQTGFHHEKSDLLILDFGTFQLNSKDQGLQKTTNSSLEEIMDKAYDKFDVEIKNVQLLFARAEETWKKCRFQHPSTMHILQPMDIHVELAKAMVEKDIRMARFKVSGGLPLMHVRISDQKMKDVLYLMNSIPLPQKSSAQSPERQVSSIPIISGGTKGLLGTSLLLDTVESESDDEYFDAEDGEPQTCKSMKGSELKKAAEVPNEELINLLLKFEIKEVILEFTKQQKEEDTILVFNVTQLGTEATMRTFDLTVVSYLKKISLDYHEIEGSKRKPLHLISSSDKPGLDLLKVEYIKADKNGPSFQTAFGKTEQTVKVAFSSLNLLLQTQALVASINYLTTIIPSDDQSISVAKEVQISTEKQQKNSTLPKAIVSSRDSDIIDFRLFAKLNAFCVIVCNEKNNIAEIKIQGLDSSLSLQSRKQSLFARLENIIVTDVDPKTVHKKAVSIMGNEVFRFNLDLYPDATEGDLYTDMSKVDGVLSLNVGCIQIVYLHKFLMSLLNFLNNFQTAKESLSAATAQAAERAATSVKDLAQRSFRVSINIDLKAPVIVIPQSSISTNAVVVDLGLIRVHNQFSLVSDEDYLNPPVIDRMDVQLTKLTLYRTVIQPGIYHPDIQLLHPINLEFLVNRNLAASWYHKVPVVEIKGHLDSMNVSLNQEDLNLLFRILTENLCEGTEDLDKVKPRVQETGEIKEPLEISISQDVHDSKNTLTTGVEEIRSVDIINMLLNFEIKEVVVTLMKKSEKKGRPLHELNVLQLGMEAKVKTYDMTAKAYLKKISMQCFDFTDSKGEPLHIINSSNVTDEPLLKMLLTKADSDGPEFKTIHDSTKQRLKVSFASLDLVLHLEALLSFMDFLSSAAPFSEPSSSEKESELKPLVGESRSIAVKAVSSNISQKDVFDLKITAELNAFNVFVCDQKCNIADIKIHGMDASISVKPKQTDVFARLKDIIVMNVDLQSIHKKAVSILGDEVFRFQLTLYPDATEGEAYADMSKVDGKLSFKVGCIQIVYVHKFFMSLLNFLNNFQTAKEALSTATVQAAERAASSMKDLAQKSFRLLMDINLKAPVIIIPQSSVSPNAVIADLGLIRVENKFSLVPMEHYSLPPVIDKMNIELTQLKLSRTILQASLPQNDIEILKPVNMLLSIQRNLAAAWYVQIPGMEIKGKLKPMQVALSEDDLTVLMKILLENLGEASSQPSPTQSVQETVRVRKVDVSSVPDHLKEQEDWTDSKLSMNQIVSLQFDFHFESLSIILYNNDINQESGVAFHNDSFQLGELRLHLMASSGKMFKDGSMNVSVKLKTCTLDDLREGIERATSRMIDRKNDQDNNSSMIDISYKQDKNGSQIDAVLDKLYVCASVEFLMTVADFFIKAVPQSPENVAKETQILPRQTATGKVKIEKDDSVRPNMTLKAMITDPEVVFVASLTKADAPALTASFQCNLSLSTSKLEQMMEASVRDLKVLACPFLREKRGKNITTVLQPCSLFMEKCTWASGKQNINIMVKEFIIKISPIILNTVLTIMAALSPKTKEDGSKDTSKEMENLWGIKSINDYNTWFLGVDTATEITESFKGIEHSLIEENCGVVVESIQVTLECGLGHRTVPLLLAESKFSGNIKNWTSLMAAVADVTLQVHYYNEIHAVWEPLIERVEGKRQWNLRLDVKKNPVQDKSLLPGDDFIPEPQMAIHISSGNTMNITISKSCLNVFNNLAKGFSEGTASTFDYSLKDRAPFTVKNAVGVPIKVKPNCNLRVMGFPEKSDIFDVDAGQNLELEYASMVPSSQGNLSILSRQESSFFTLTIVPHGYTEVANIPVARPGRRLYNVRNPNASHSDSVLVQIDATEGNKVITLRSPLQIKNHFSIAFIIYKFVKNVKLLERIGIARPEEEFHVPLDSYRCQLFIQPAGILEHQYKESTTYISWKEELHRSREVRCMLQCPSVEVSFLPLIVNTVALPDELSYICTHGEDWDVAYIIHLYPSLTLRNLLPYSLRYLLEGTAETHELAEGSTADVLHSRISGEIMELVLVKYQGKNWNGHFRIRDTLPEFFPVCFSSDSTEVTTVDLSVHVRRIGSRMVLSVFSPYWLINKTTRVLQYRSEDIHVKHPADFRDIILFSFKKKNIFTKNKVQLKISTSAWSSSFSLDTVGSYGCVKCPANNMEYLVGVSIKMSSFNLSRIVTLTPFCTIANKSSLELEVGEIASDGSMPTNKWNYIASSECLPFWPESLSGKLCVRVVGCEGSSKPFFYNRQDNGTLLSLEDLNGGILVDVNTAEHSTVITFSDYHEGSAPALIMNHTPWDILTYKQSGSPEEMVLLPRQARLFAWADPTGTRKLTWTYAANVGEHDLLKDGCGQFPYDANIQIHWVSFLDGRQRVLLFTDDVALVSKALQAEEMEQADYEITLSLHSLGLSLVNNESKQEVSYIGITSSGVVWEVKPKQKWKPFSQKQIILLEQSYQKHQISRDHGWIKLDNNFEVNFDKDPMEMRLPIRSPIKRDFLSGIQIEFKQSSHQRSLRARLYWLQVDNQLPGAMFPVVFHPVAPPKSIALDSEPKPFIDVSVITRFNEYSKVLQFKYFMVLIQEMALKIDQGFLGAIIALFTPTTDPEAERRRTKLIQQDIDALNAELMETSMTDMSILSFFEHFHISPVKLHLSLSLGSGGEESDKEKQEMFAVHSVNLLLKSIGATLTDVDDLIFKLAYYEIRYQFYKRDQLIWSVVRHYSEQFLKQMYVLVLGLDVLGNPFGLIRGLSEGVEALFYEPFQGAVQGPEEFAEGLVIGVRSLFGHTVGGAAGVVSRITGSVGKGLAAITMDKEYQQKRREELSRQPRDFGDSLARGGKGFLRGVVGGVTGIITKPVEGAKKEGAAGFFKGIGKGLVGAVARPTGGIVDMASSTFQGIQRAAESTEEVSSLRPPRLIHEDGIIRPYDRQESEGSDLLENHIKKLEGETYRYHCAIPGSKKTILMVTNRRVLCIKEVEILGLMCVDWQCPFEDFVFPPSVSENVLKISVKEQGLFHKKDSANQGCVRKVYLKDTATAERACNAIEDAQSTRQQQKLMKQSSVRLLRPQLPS

No constants are given. Whether binding was seen depends on the method and setting. Binding seen in cells or lysates may run through a third protein. These calls come from enrichment with a bait or labelling near it, and not all partners need be listed.

The target of assay [1] is phosphomimetic GFP-Rab10 T73E (UniProt P61026). Put plainly: affinity purification with mass spectrometry; GFP-Rab10 WT, T73E, T73A or mock-GFP precipitated with GFP-Trap beads from lysate of transfected HEK-293 T cells; on-bead trypsin digestion, Orbitrap Fusion Tribrid MS; T73E compared with T73A.
The target in assay [2] is phosphodeficient GFP-Rab10 T73A (UniProt P61026). Described as above.

As for “VPS13C, endogenous in HEK-293 cells (from UniProt Q709C8 1-3753)”, in assay [1], the binding result is recorded as “binds”.

B1: GDP-dissociation inhibitor 1 (GDI1) (protein, UniProt P31150 1-447)
chain: MDEEYDVIVLGTGLTECILSGIMSVNGKKVLHMDRNPYYGGESSSITPLEELYKRFQLLEGPPESMGRGRDWNVDLIPKFLMANGQLVKMLLYTEVTRYLDFKVVEGSFVYKGGKIYKVPSTETEALASNLMGMFEKRRFRKFLVFVANFDENDPKTFEGVDPQTTSMRDVYRKFDLGQDVIDFTGHALALYRTDDYLDQPCLETVNRIKLYSESLARYGKSPYLYPLYGLGELPQGFARLSAIYGGTYMLNKPVDDIIMENGKVVGVKSEGEVARCKQLICDPSYIPDRVRKAGQVIRIICILSHPIKNTNDANSCQIIIPQNQVNRKSDIYVCMISYAHNVAAQGKYIAIASTTVETTDPEKEVEPALELLEPIDQKFVAISDLYEPIDDGCESQVFCSCSYDATTHFETTCNDIKDIYKRMAGTAFDFENMKRKQNDVFGEAEQ
For the molecule B1, the binding result in assay [2] is on record as “binds”.

B2: GDI2 (protein, UniProt P50395 1-445)
chain: MNEEYDVIVLGTGLTECILSGIMSVNGKKVLHMDRNPYYGGESASITPLEDLYKRFKIPGSPPESMGRGRDWNVDLIPKFLMANGQLVKMLLYTEVTRYLDFKVTEGSFVYKGGKIYKVPSTEAEALASSLMGLFEKRRFRKFLVYVANFDEKDPRTFEGIDPKKTTMRDVYKKFDLGQDVIDFTGHALALYRTDDYLDQPCYETINRIKLYSESLARYGKSPYLYPLYGLGELPQGFARLSAIYGGTYMLNKPIEEIIVQNGKVIGVKSEGEIARCKQLICDPSYVKDRVEKVGQVIRVICILSHPIKNTNDANSCQIIIPQNQVNRKSDIYVCMISFAHNVAAQGKYIAIVSTTVETKEPEKEIRPALELLEPIEQKFVSISDLLVPKDLGTESQIFISRTYDATTHFETTCDDIKNIYKRMTGSEFDFEEMKRKKNDIYGED
Consider B2, for which, in assay [2], the binding entry is “binds”.
